Among the data in paper PMC7093135 are binding values, retold here.

Sequences of proteins named here, by UniProt entry; tags and fusion partners are left off. Residues count along the entry.
UniProt P19783, residues 23-169: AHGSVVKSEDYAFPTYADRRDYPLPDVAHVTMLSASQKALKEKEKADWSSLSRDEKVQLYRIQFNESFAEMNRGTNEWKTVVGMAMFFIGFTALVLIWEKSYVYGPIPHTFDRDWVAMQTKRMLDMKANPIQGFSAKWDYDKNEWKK
UniProt P63168: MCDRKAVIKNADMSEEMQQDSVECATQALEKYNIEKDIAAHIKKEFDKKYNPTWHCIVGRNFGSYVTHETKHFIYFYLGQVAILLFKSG
UniProt P62821: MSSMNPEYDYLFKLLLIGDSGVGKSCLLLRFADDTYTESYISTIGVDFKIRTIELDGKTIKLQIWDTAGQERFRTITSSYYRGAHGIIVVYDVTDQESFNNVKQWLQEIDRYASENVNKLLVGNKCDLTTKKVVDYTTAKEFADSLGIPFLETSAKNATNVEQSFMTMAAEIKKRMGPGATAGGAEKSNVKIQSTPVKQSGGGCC

In assay [1] the target is mitochondrial cytochrome oxidase Cox4i1 (mouse (endogenous in DC2.4)) (UniProt P19783). Put plainly: co-IP; forward and reverse co-IP of endogenous Dynll1 and Cox4i1 from RIPA lysates of DC2.4 cells (no infection or infected with L. monocytogenes), protein A-agarose, Western blot.
Assay [2] concerns the target Dynein light chain 1 (Dynll1) (mouse (endogenous in DC2.4)) (UniProt P63168). Description: proximity ligation; Duolink PLA on fixed DC2.4 cells (no infection or infected with L. monocytogenes for 6.5 h), primary antibodies overnight at 4°C; negative controls with one antibody only.

These are yes or no findings as the source states them, for the method shown. Binding seen in cells or lysates may run through a third protein. Some binding calls cover weakened binding; strength is not graded here.

Regarding “Dynein light chain 1 (Dynll1) (from UniProt P63168 1-89)”, the binding result in assay [1] is recorded as “binds”.

In the case of Rab1a (from UniProt P62821 1-205), in assay [2], the binding result is given as “binds”.

B1: Canx (protein, UniProt P35564 21-591)
chain: HDGHDDDAIDIEDDLDDVIEEVEDSKSKSDASTPPSPKVTYKAPVPTGEVYFADSFDRGSLSGWILSKAKKDDTDDEIAKYDGKWEVDEMKETKLPGDKGLVLMSRAKHHAISAKLNKPFLFDTKPLIVQYEVNFQNGIECGGAYVKLLSKTAELSLDQFHDKTPYTIMFGPDKCGEDYKLHFIFRHKNPKTGVYEEKHAKRPDADLKTYFTDKKTHLYTLILNPDNSFEILVDQSVVNSGNLLNDMTPPVNPSREIEDPEDRKPEDWDERPKIADPDAVKPDDWDEDAPSKIPDEEATKPEGWLDDEPEYIPDPDAEKPEDWDEDMDGEWEAPQIANPKCESAPGCGVWQRPMIDNPNYKGKWKPPMIDNPNYQGIWKPRKIPNPDFFEDLEPFKMTPFSAIGLELWSMTSDIFFDNFIISGDRRVVDDWANDGWGLKKAADGAAEPGVVLQMLEAAEERPWLWVVYILTVALPVFLVILFCCSGKKQSNAMEYKKTDAPQPDVKDEEGKEEEKNKRDEEEEEEKLEEKQKSDAEEDGVTGSQDEEDSKPKAEEDEILNRSPRNRKPRRE
Regarding B1, the binding result in assay [2] is given as “binds”.

B2: Snx2 (protein, UniProt Q9CWK8 1-519)
chain: MAAEREPPPLGDVKPTDFEELEDGEDLFTSTVSTLESSPSSPEPASLPAEDISANSNGSKPVEVVLDDDREDLFAEATEEVSLDSPERELILSSEPSPAVTPVTPTTLIAPRIESKSISAPVIFDRSRDEIEEEANGDIFDIEIGVSDPEKVGDGMNAYMAYRVTTKTSLSMFSKSEFSVKRRFSDFLGLHSKLASKYLHVGYIVPPAPEKSIVGMTKVKVGKEDSSSTEFVEKRRAALERYLQRTVKHPTLLQDPDLRQFLESSELPRAVNTQALSGAGILRMVNKAADAVNKMTIKMNESDAWFEEKQQQFENLDQQLRKLHASVEALVCHRKELSANTAAFAKSAAMLGNSEDHTALSRALSQLAEVEEKIDQLHQEQAFADFYMFSELLSDYIRLIAAVKGVFDHRMKCWQKWEDAQITLLKKRETEAKMMVANKPDKIQQAKNEIREWEAKVQQGERDFEQISKTIRKEVGRFEKERVKDFKAVIIKYLESLVQTQQQLIKYWEAFLPEAKAIA
With B2, the binding result in assay [2] is recorded as “binds”.
